Results are given in words; binding and its absence hold for the method and conditions named. In cells and extracts the contact can be indirect. Some binding calls cover weakened binding; strength is not graded here.
Experiments:
[1] = biological target: T1, TSC22 domain family member (TSC22D)3 (human (endogenous in MIO‐M1)) (UniProt Q99576); experiment: co-IP; endogenous proteins in extracts of MIO‐M1 cells (triamcinolone acetonide‐treated, hypoxia 1% O2 for 24 h); lysis buffer 1% NP‐40 in PBS; anti‐TSC22D3 or anti‐HIF‐1α antibody with Dynabeads Protein G overnight at 4°C; immunoblot
T1 sequence: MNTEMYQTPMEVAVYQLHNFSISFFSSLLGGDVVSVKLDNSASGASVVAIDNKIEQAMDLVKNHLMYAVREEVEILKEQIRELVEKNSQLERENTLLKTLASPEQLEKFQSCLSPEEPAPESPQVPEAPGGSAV

The chains behind the UniProt entries cited, without tags or fusion partners.
UniProt Q16665: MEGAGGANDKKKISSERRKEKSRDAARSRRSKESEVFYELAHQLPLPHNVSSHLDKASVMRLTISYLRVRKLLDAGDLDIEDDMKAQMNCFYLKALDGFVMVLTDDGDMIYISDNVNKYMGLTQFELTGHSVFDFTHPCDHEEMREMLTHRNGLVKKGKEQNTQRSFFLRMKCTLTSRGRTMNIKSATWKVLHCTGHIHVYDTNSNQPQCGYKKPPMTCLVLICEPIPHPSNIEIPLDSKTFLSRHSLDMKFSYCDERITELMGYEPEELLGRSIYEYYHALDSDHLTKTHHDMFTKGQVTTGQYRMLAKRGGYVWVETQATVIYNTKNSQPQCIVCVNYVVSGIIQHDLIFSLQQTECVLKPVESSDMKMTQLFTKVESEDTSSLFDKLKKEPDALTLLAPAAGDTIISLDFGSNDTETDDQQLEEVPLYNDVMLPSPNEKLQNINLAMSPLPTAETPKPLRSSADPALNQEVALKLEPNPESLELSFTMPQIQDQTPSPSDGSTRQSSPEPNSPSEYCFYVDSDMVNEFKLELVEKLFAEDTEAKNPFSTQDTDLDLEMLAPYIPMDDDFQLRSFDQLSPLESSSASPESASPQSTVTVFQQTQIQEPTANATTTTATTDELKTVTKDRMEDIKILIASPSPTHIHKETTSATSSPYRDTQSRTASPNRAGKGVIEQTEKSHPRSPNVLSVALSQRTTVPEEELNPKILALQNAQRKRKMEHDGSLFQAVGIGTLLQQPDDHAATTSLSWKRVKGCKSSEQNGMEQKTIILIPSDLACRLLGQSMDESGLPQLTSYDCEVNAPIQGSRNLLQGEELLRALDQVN

[2] = biological target: hypoxia‐inducible factor (HIF)‐1α (human (endogenous in MIO‐M1)) (UniProt Q16665); experiment: as above

## hypoxia‐inducible factor (HIF)‐1α (from UniProt Q16665 1-826)
[1]
  binding: binds

B1: TSC22 domain family member (TSC22D)3 (protein, UniProt Q99576 1-134)
chain: MNTEMYQTPMEVAVYQLHNFSISFFSSLLGGDVVSVKLDNSASGASVVAIDNKIEQAMDLVKNHLMYAVREEVEILKEQIRELVEKNSQLERENTLLKTLASPEQLEKFQSCLSPEEPAPESPQVPEAPGGSAV
[2]
  binding: binds

From paper PMC7176855
